Binding data for one substance are collected here from article PMC11984319.

The assay addresses T1, GST-IRX5 (iroquois homeobox 5 fused to glutathione-S-transferase) (UniProt P78411).
T1 sequence: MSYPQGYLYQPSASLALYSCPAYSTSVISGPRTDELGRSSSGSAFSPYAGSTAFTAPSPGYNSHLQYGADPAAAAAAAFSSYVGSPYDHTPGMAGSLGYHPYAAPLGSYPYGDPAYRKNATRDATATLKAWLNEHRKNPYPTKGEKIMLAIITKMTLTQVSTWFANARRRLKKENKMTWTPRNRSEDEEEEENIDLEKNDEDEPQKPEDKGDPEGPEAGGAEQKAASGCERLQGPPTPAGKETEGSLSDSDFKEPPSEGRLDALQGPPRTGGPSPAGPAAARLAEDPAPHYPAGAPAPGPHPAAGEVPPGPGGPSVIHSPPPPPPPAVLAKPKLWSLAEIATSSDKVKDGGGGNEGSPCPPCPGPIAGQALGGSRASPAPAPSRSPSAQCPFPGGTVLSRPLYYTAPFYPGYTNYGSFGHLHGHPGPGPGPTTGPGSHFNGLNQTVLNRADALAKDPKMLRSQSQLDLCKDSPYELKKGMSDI
Briefly: affinity purification with mass spectrometry; GST-IRX5 or GST alone immobilised on glutathione Sepharose 4B beads, incubated with whole-cell extracts of HepG2 cells; bound proteins eluted, SDS-PAGE and mass spectrometry; only the target purified.

No constants are given. Whether binding was seen depends on the method and setting. In cells and extracts the contact can be indirect. A yes stands for co-enrichment or nearness to the bait. Other partners may have been found. Tags and fused reporters may be left off the sequences shown.

“high-mobility group nucleosomal binding domain 4 (HMGN4), endogenous in HepG2 (from UniProt O00479 1-90)”: the binding entry was “binds”.
